Measured values reported in PubChem BioAssay AID504834 (National Center for Advancing Translational Sciences (NCATS), 2011).
In all, about 320,000 compounds went through this assay and about 22,000 (6.9%) were called active. Inconclusive results, whose numbers are uncertain, are shown with a selection of clear calls. The call rests on the fitted dose curve; in most records, active means well fitted inhibition curve with a large enough effect; inconclusive means small, poorly fitted or top-dose-only effect, or another doubt; inactive means no such curve, though single readings can be large or run the other way. Potencies beside an inconclusive call are fits to weak or partial responses and may not hold up.
Potency means the concentration at half of the fitted maximal effect.

Test: Primary qHTS for delayed death inhibitors of the malarial parasite plastid, 96 hour incubation
Details: P. falciparum luciferase reporter growth; series mostly up to 28.7 µM
Method in brief: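 P. falciparum expressing integrated firefly luciferase, in erythrocytes at 2% hematocrit, 0.05% parasitemia, incubated with compounds 96 h at 37 C, 5% CO2. Growth inhibition read as loss of luminescence; two-generation exposure targets delayed-death apicoplast inhibitors.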
With `Cc1ccc(OCCC(=O)OCC(=O)NC(=O)c2ccccc2)cc1` the Potency was “inactive”. In the case of `CC1Cn2c(CCc3ccccc3)nnc2S1` (configuration not stated), the Potency is reported as inconclusive: 11.7 µM [inhibitor, single point]. In the case of `Cc1cc(C(=O)N=Nc2c(O)n(C(C)C)c3ccccc23)n[nH]1`, the Potency is reported as inconclusive: 14.7 µM [inhibitor, partial curve]. In the case of `CCn1cc(C(=O)N2CCN(C3CCCCC3)CC2)c2cc(OC)c(OC)cc2c1=O`, the Potency is reported as inconclusive: 13.1 µM [inhibitor, single point]. In the case of `CC(C(=O)N1CCCC1)N1CCN(S(=O)(=O)c2ccc(C(C)(C)C)cc2)CC1` (configuration not stated), the Potency is reported as active: 0.465 µM. For `Cc1cc(C)c(C)c(S(=O)(=O)N2CCN(CC(=O)Nc3sccc3C#N)CC2)c1C`, the Potency was inconclusive: 18.5 µM [inhibitor, single point]. In the case of `Fc1ccc(-c2nnc(-c3ccc(Cl)cc3)o2)cc1`, the Potency is reported as “inactive”. For `CCn1cc(C(=O)NCCN(C)CCc2ccccc2)c(=O)c2cc(S(=O)(=O)N(C)C)ccc21`, the Potency was inconclusive: 3.7 µM [inhibitor, partial curve]. In the case of `COc1cc2c(cc1OC)C(c1ccccc1Cl)N(C)CC2` (configuration not stated), the Potency is reported as inconclusive: 13.1 µM [inhibitor, partial curve]. With `CCc1ccc(NC(=O)C(=O)NCC2CCCN2S(=O)(=O)c2ccccc2)cc1` (configuration not stated) the Potency was inconclusive: 18.5 µM [inhibitor, single point]. With `Cc1cccc(C)c1NC(=O)COc1cccc(/C=N/NC(=O)C(=O)NCc2ccccc2)c1` the Potency was “inactive”. With `COc1cc(/C=N/n2cnnc2)ccc1OCCSc1ccc(C)cc1` the Potency was inconclusive: 9.28 µM [inhibitor, partial curve]. In the case of `Cc1cc2c(=O)oc(-c3ccc(F)cc3)nc2s1`, the Potency is reported as inconclusive: 2.08 µM [inhibitor, full curve]. In the case of `CCN(CC)CCOC(=O)c1ccc(N/C=C(/C#N)c2nc(-c3ccc4c(c3)OCO4)cs2)cc1`, the Potency is reported as active: 1.31 µM. For `NC(=O)N/N=C/C=C/c1ccccc1`, the Potency was inconclusive: 10.4 µM [inhibitor, partial curve, poor fit]. For `O=C(Cc1c(Cl)cccc1Cl)Nc1cccc(S(=O)(=O)N2CCOCC2)c1`, the Potency was inconclusive: 13.1 µM [inhibitor, partial curve, poor fit]. With `COc1ccc(C(CCN2CCCCC2)c2c(O)cc(OC)cc2OC)cc1` (configuration not stated) the Potency was active: 0.465 µM. In the case of `Nc1nc(SCC(=O)Nc2ccc3c(c2)CCC3)n[nH]1`, the Potency is reported as “inactive”. With `O=C(Nc1ccnn1C1CCN(Cc2cccc(OCCO)c2)CC1)C1CC1` the Potency was inconclusive: 2.62 µM [inhibitor, partial curve, poor fit]. For `O=c1c2ccccc2nc(/C=C/c2ccc([N+](=O)[O-])o2)n1-c1ccc(O)cc1`, the Potency was inconclusive: 9.28 µM [inhibitor, single point]. For `CCNc1nc(NCC)nc(N/N=C/c2ccc(Br)cc2)n1`, the Potency was inconclusive: 10.4 µM [inhibitor, single point]. For `COC(=O)c1ccccc1Oc1ccc(NC(=O)CCCl)cc1`, the Potency was “inactive”. For `S=c1[nH]cnc2scc(-c3ccc(Br)cc3)c12`, the Potency was inconclusive: 14.7 µM [inhibitor, single point]. In the case of `CCOC(=O)C(NS(=O)(=O)c1ccccc1)(C(F)(F)F)P(=O)(OCC(C)C)OCC(C)C` (configuration not stated), the Potency is reported as “inactive”. With `Cc1ccc(S(=O)(=O)CCC(=O)Nc2nnc(CC(C)C)s2)cc1` the Potency was inconclusive: 0.0029 µM [inhibitor, full curve, poor fit]. In the case of `COc1ccc(CCNC(=O)CSc2nc3[nH]ncc3c(=O)n2-c2ccc(Cl)cc2Cl)cc1OC`, the Potency is reported as inconclusive: 18.5 µM [inhibitor, single point]. For `O=C(NC1CCCCC1)C(c1ccc(O)cc1)N(CC1CCCO1)C(=O)C1COc2ccccc2O1` (configuration not stated), the Potency was active: 7.38 µM. In the case of `NS(=O)(=O)c1cccc(NC(=O)CCSc2ccccc2Cl)c1`, the Potency is reported as “inactive”. In the case of `Cc1ccc(C(=O)N(C)CC(=O)Nc2ccc(N3CCOCC3)cc2)s1`, the Potency is reported as “inactive”. With `C/C=C/Cn1c(SCCCc2ccccc2)nc2c1c(=O)[nH]c(=O)n2C` the Potency was active: 0.928 µM. With `CSCCC(NC(=O)c1ccco1)C(=O)NCCc1ccc(F)cc1` (configuration not stated) the Potency was inconclusive: 18.5 µM [inhibitor, single point]. In the case of `COC(=O)CCCC(=O)N1CCCC(CNS(=O)(=O)c2ccc(OC)cc2)C1` (configuration not stated), the Potency is reported as “inactive”. In the case of `O=C(Cn1c(NCCO)nc2ccccc21)N1CCN(Cc2ccccc2)CC1`, the Potency is reported as “inactive”. For `CN1N=C2c3ccccc3CCC2C1c1ccc(C(F)(F)F)cc1` (configuration not stated), the Potency was “inactive”. With `Cn1c(SCC(=O)OC2CCCCC2)nnc1-c1ccco1` the Potency was inconclusive: 14.7 µM [inhibitor, single point]. In the case of `N/C(=N\OC(=O)CCC1CCCC1)c1cccnc1`, the Potency is reported as inconclusive: 10.4 µM [inhibitor, single point]. With `Cc1ccc(NC2=Nc3ccccc3CS2)cc1` the Potency was “inactive”. In the case of `CN(C)c1ccc(C2Nc3ccccc3C(=O)N2NS(C)(=O)=O)cc1` (configuration not stated), the Potency is reported as inconclusive: 16.5 µM [inhibitor, partial curve, poor fit]. With `CCOc1ccc(N2C(=O)CN=C2Nc2ccccc2F)cc1` the Potency was “inactive”. With `CCN(c1cccc2ccccc12)S(=O)(=O)c1ccc(Cl)nc1` the Potency was inconclusive: 0.104 µM [inhibitor, full curve, poor fit]. With `CCCc1nn(C)c2c(=O)[nH]c(-c3cc(S(=O)(=O)N(CCO)CCO)ccc3OCC)nc12` the Potency was inconclusive: 0.0928 µM [inhibitor, full curve, poor fit]. With `CCOC(=O)C(C)On1c(-n2nc(C)cc2C)nc2ccccc2c1=O` (configuration not stated) the Potency was inconclusive: 11.7 µM [inhibitor, single point]. In the case of `CCC(C)(C)NC(=O)C(c1cccc(OC)c1OC)N(Cc1ccccc1)C(=O)CCC(=O)Nc1cc(C)on1` (configuration not stated), the Potency is reported as “inactive”. With `Clc1cccc(-c2nc(NCc3cccnc3)c3ccccc3n2)c1` the Potency was inconclusive: 11.7 µM [inhibitor, partial curve]. With `Cc1nnsc1C(=O)NNc1ccc(C(C)C)cc1` the Potency was “inactive”. For `CCOc1ccccc1N(C)C(=O)c1ccc2c(=O)n3c(nc2c1)CCCCC3`, the Potency was active: 1.47 µM. For `CN1Cc2cc(C(=O)c3ccccc3O)cnc2NC1=O`, the Potency was inconclusive: 10.4 µM [inhibitor, partial curve, poor fit]. For `CCOC(=O)COc1c(/C=N\O)cc(Cl)cc1OC`, the Potency was “inactive”. With `CCN1CCN(CCCNC(=O)c2csc3c2CCCCC3)CC1` the Potency was active: 14.7 µM. With `CSc1ccc(CCNC(=O)C2CCN(c3nnc(-n4cccc4)s3)CC2)cc1` the Potency was inconclusive: 18.5 µM [inhibitor, single point]. In the case of `COc1ccc(/C(C)=C2/SC(=S)N(CCC(=O)O)C2=O)cc1`, the Potency is reported as “inactive”. In the case of `O=C(c1ccc(Cl)cc1)N(Cc1ccc(Br)cc1)N1C(=O)CCC1=O`, the Potency is reported as inconclusive: 1.65 µM [inhibitor, full curve]. For `CC(Cc1ccccc1Sc1ccccc1)N(C)C` (configuration not stated), the Potency was inconclusive: 18.5 µM [inhibitor, single point]. For `CCCSc1ccc([C@@H]2[C@H]3C(=O)N(CC)C(=O)[C@H]3[C@]3(C(=O)OC)CCCN23)cc1`, the Potency was active: 14.7 µM. In the case of `COC(=O)N[C@@H]1C[C@H]2[C@@H]3CC[C@H]4C[C@@H](OC)CC[C@]4(C)[C@H]3CC[C@@]12C`, the Potency is reported as inconclusive: 18.5 µM [inhibitor, single point]. With `Cn1cc(/C=C/C(=O)N2CCCC(C(=O)c3cccc4ccccc34)C2)cn1` (configuration not stated) the Potency was “inactive”. For `CCN(CC(=O)Nc1ccc2c(c1)OCCO2)C(=O)C1CC(=O)N(c2ccc(OC)cc2OC)C1` (configuration not stated), the Potency was “inactive”. For `CCC1=C[C@@H]2CN(C1)Cc1c([nH]c3ccccc13)[C@@](C(=O)OC)(c1cc3c(cc1OC)N(C)[C@@H]1[C@@](O)(C(=O)OC)[C@H](OC(C)=O)[C@]4(CC)C=CCN5CC[C@]31[C@@H]54)C2`, the Potency was active: 0.849 µM. With `O=C(OC1CCCCC1)c1cc2ccccc2oc1=O` the Potency was “inactive”. With `CCC(C)[C@H]1CNC(=S)N1CCC12CC3CC(CC(C3)C1)C2` (some centres not stated) the Potency was inconclusive: 4.15 µM [inhibitor, full curve]. With `COc1cc(-c2nnc(SCC(=O)c3ccccc3)o2)cc(OC)c1OC` the Potency was “inactive”. With `O=C(NC1CCCC1)C(c1ccncc1)N(CCCN1CCOCC1)C(=O)c1ccc(-c2ccccc2)[nH]1` (configuration not stated) the Potency was “inactive”. For `O=C(Nc1nnc(-c2cccnc2)o1)c1cccc(Cl)c1`, the Potency was inconclusive: 18.5 µM [inhibitor, partial curve, poor fit]. In the case of `CC(C)CNC(=O)c1cc(=O)[nH]c2ccc(S(=O)(=O)Nc3ccc(F)cc3)cc12`, the Potency is reported as “inactive”. For `C=CCN(c1ccccc1)S(=O)(=O)c1cccc(C(=O)Nc2nnc(SCC)s2)c1`, the Potency was inconclusive: 18.5 µM [inhibitor, single point]. With `COc1cc(S(=O)(=O)N2CCC(c3nc4ccccc4s3)CC2)ccc1S(=O)(=O)NC1CCCC1` the Potency was active: 9.28 µM. For `CCc1noc(C)c1C(=O)N(CC)c1nc2c(C)cccc2s1`, the Potency was inconclusive: 0.586 µM [inhibitor, partial curve, poor fit]. With `CCOc1ccccc1CN1CCN(Cc2cn(C)nc2-c2ccccc2)CC1CCO` (configuration not stated) the Potency was inconclusive: 18.5 µM [inhibitor, single point]. With `O=C(Nc1ccc2c(c1)OCCO2)C1CCN(C(=O)c2ccc(Br)cc2)CC1` the Potency was active: 2.62 µM. With `COc1ccc(OCc2cc(C(=O)NCC3(C)COC3)no2)c(Cl)c1` the Potency was inconclusive: 11.7 µM [inhibitor, single point]. With `COc1ccc(CC(=O)NNC2=Nc3cccc4cccc2c34)cc1` the Potency was “inactive”. With `COc1cccc(NC(=O)C(NCCc2ccc(S(N)(=O)=O)cc2)c2ccccc2)c1` (configuration not stated) the Potency was inconclusive: 11.7 µM [inhibitor, single point].
